# Reference: publication PMC4323012
# By UniProt entry, the sequences of proteins in these tests, tags left out.
# UniProt Q01094: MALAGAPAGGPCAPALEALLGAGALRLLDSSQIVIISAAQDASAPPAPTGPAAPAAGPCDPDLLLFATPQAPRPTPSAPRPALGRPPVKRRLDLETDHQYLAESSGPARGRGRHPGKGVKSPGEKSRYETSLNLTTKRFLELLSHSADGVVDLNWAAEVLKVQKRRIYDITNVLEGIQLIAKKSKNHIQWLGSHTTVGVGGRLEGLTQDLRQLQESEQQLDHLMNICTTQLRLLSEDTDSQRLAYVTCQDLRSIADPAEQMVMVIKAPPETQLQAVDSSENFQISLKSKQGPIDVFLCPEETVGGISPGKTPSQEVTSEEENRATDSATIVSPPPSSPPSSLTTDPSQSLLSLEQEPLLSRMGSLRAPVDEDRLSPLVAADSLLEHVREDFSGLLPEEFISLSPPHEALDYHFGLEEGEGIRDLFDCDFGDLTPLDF
# UniProt Q9UDV7: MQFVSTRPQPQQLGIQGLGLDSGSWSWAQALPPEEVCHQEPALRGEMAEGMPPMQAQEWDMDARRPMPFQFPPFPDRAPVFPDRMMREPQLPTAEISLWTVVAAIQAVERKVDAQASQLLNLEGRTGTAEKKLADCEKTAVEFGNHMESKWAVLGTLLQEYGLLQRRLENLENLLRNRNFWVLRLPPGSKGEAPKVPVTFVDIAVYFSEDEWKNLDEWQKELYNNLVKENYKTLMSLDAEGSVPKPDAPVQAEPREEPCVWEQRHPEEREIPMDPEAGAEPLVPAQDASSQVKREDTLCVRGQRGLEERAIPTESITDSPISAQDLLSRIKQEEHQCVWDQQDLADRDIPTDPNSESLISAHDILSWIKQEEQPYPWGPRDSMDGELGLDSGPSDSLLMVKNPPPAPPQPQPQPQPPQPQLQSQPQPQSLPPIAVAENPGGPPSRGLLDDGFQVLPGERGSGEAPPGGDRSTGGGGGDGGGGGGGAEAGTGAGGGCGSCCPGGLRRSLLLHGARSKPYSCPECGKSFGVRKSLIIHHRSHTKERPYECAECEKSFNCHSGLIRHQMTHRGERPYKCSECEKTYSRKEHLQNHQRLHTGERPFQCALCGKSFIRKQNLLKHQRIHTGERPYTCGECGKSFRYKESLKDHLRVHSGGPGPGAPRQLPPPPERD
# Results are given in words; binding and its absence hold for the method and conditions named. Binding seen in cells or lysates may run through a third protein. Some entries that bind do so weakly or less than the wild type.
# What was measured:
# [1] = target: HA-E2F1 (from pSG5.HA-E2F1) (UniProt Q01094); assay: co-IP; 293T cells transfected with pSG5.HA-E2F1 and pFLAG.CMV4-ZNF282; lysates immunoprecipitated with anti-E2F1 antibody or control normal IgG and protein G Dynabeads, immunoblot with anti-FLAG and anti-E2F1
# [2] = target: GST-E2F1 (recombinant, from pGEX-4T-1) (UniProt Q01094); assay: pull-down; in vitro translated HA-tagged ZNF282 incubated with immobilized recombinant GST-E2F1; bound proteins detected by immunoblot with anti-HA antibody; only the target purified
# [3] = target: E2F1, endogenous in TE10 cells (human (endogenous in TE10)) (UniProt Q01094); assay: co-IP; endogenous proteins; TE10 cell lysates immunoprecipitated with anti-E2F1 antibody or control normal IgG and protein G Dynabeads, immunoblot
substance,measurement,setting,value
FLAG-ZNF282 (from pFLAG.CMV4-ZNF282) (from UniProt Q9UDV7 1-671),binding,[1],binds
"HA-tagged ZNF282, in vitro translated (from pSG5.HA-ZNF282) (from UniProt Q9UDV7 1-671)",binding,[2],binds
"Zinc finger protein 282 (ZNF282), endogenous in TE10 cells (from UniProt Q9UDV7 1-671)",binding,[3],binds
